These results are taken from patent publication US7888063B2, “Unnatural reactive amino acid genetic code additions” (The Scripps Research Institute, priority 2003, dated 2011).

Bounds are passed on as bounds.

For data set [1], the system named is SOD containing azido or alkyne amino acid. Description: Protein labeling by azide-alkyne [3+2] cycloaddition, in-gel fluorescence and A280/A495. The following applies: 3 with alkyne protein, 4 with azido protein.
For data set [2], the system named is MaV203 pGADGAL4(T44TAG, R110TAG). Description: Model positive selection for functional EcTyrRS. It counts as cell-based, Saccharomyces cerevisiae.

Turning to `CN(C)c1cccc2c(S(=O)(=O)NCCCN=[N+]=[N-])cccc12` [chemical structure 4], in data set [1], the “reaction with the protein bearing the same reactive group (selectivity of bioconjugation)” value is on record as “no observable reaction”.

For `C#CCNS(=O)(=O)c1cccc2c(N(C)C)cccc12` [chemical structure 3], the “reaction with the protein bearing the same reactive group (selectivity of bioconjugation)” value in data set [1] is given as “no observable reaction”.

B1: EcTyrRS: Escherichia coli tyrosyl-tRNA synthetase, expressed with tRNACUA in yeast (protein, UniProt P0AGJ9 2-424, looked up)
Tyrosine--tRNA ligase: ASSNLIKQLQERGLVAQVTDEEALAERLAQGPIALYCGFDPTADSLHLGHLVPLLCLKRFQQAGHKPVALVGGATGLIGDPSFKAAERKLNTEETVQEWVDKIRKQVAPFLDFDCGENSAIAANNYDWFGNMNVLTFLRDIGKHFSVNQMINKEAVKQRLNREDQGISFTEFSYNLLQGYDFACLNKQYGVVLQIGGSDQWGNITSGIDLTRRLHQNQVFGLTVPLITKADGTKFGKTEGGAVWLDPKKTSPYKFYQFWINTADADVYRFLKFFTFMSIEEINALEEEDKNSGKAPRAQYVLAEQVTRLVHGEEGLQAAKRITECLFSGSLSALSEADFEQLAQDGVPMVEMEKGADLMQALVDSELQPSRGQARKTIASNAITINGEKQSDPEYFFKEEDRLFGRFTLLRRGKKNYCLICWK
On to B1, for which the Enrichment factor was >10^ in data set [2] (starting ratio EcYRS:A5 1:10); >10^2 in data set [2] (starting ratio EcYRS:A5 1:10^2); >10^3 in data set [2] (starting ratio EcYRS:A5 1:10^3); >10^4 in data set [2] (starting ratio EcYRS:A5 1:10^4); >10^5 in data set [2] (starting ratio EcYRS:A5 1:10^5).
